PubChem BioAssay AID504793 – Drosophila RNAi Screening Center, 2011
Screen: 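Whole-genome screen for parts of the DNA damage checkpoint at G2/M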 (primary screen). Cell system: Drosophila S2R+ cells. Knock-down reagent: long dsRNA against Drosophila genes, about 0.25 µg dsRNA per well. Duration: 4 days of dsRNA, then 4 hours of drug before read-out. Conditions: doxorubicin 0.5 µM for 4 hours to cause double-strand breaks, in cells also given a low, harmless dose of dsRNA against nbs to sensitise the assay. Read-out: 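Per-well count of mitotic cells stained for phospho-histone H3 after doxorubicin exposure, used as mitotic index; counts are raw and not normalised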. Reading the numbers: mitotic cells: higher = more cells in mitosis, weaker G2 arrest. Rule for the call: 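Genes are called active only when high mitotic counts were reproduced with independent dsRNAs and mitosis was checked for delay without damage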. Calls: active = confirmed in follow-up tests; inactive = not confirmed.
The screen tested about 23,000 reagents; shown is an unselected part of those that have a named target and a result. Of all reagents, 62 (0.27%) were called active. 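Calls come from follow-up tests whose scores are not deposited, so confirmed genes may have low counts here; counts are not normalised per plate.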 Raw values are not corrected between plates. Reagents against one gene are numbered here. Names joined by + are all predicted targets of the reagent.

Sema5c #1 gave mitotic cells, replicate 1 = 2; inactive.
Depletion of Sema5c #2 came out at: mitotic cells, replicate 1 = 8; inactive.
With knock-down of CG32487 #1 the results were mitotic cells, replicate 1 = 6; inactive.
Depletion of CG32487 #2 came out at: mitotic cells, replicate 1 = 2; inactive.
For CG9101 #1, the entry reads mitotic cells, replicate 1 = 11; inactive.
Against CG9101 #2, the values are mitotic cells, replicate 1 = 7; inactive.
CG3857 showed mitotic cells, replicate 1 = 4; inactive.
Depletion of GILT1 gave: mitotic cells, replicate 1 = 5; inactive.
With knock-down of CG15882 the results were mitotic cells, replicate 1 = 5; inactive.
Knock-down of Drat resulted in: mitotic cells, replicate 1 = 6; inactive.
Atg10 + CG12822 showed mitotic cells, replicate 1 = 7; inactive.
Against CG17646, the values are mitotic cells, replicate 1 = 7; inactive.
CG31068 gave mitotic cells, replicate 1 = 11; inactive.
Knock-down of Acp53C14b gave: mitotic cells, replicate 1 = 6; inactive.
For Stim, the entry reads mitotic cells, replicate 1 = 5; inactive.
Knock-down of CG15699 (retired record) came out at: mitotic cells, replicate 1 = 5; inactive.
Eig71Ek scored mitotic cells, replicate 1 = 5; inactive.
Against CG15160 #1, the values are mitotic cells, replicate 1 = 4; inactive.
Against CG15160 #2, the entry reads mitotic cells, replicate 1 = 3; inactive.
With knock-down of scra, the screen gave mitotic cells, replicate 1 = 10; inactive.
Depletion of sd #1 came out at: mitotic cells, replicate 1 = 19; inactive.
sd #2 scored mitotic cells, replicate 1 = 11; inactive.
For CG18507, the entry reads mitotic cells, replicate 1 = 3; inactive.

Records above whose target name begins with S or s:
Sema5c #1 → mitotic cells, replicate 1 = 2; Outcome = inactive
Sema5c #2 → mitotic cells, replicate 1 = 8; Outcome = inactive
Stim → mitotic cells, replicate 1 = 5; Outcome = inactive
scra → mitotic cells, replicate 1 = 10; Outcome = inactive
sd #1 → mitotic cells, replicate 1 = 19; Outcome = inactive
sd #2 → mitotic cells, replicate 1 = 11; Outcome = inactive
